Measurements from PubChem BioAssay AID1671190 (National Center for Advancing Translational Sciences (NCATS), 2021).
Where “and” joins values, the source holds several entries; their conditions need not be identical. Equal entries are not always repeated. In all, about 580,000 compounds went through this assay and about 6,100 (1.1%) were called active. Inconclusive results, whose numbers are uncertain, are shown with a selection of clear calls. Calls follow the shape of the dose curve; as a rule, active = well fitted inhibition curve with a large enough effect; inconclusive = small, poorly fitted or top-dose-only effect, or another doubt; inactive = no such curve, though single readings can be large or run the other way. A potency beside an inconclusive call is a rough fit, not a confirmed value.

Chains of the proteins cited; added tags and fusions are not shown. Lines headed by an entry give the natural chain unless they say otherwise; changes in a name come on top.
UniProt P18054: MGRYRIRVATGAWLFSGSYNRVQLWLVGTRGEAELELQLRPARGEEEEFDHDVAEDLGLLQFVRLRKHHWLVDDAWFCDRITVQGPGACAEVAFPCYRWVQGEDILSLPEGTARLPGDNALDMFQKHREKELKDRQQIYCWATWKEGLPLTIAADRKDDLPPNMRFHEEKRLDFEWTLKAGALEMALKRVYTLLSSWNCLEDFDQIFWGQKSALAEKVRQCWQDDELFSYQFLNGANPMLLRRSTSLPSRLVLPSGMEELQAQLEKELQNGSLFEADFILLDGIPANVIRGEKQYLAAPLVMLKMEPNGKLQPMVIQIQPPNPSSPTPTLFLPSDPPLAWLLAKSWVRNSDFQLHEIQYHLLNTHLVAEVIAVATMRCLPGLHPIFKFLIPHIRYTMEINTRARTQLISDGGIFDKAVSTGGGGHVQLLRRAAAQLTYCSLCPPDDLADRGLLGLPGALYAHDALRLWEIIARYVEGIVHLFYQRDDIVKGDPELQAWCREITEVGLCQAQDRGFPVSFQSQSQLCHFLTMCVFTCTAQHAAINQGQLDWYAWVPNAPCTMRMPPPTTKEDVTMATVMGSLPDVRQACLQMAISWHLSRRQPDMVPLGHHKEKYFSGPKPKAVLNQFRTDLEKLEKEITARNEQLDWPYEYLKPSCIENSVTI

Target: Polyunsaturated fatty acid lipoxygenase ALOX12 (Homo sapiens) (UniProt P18054)
Assay: Primary qHTS assay for inhibitors of human arachidonate 12S-lipoxygenase (ALOX12): Round 2
Details: purified 12hLO, xylenol orange hydroperoxide absorbance; series mostly up to 108 µM
Outline: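 Purified human 12hLO (150 nM final) in 25 mM Hepes, 0.01% Triton X-100, pH 7.0 was preincubated 15 min at room temperature with compound. Then 40 uM arachidonic acid was added, 30 min. Hydroperoxide was read by Fe-XO absorbance ratio 573/405 nm.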
Potency is read from the fitted curve at half-maximal effect.

Row | Structure (SMILES) | Potency
1 | CCOC(=O)CSc1nc2ccccc2n2cnnc12 | inconclusive: 7.08 µM [inhibitor, full curve]
2 | CC1CCC2(CC1)NC(=O)N(CC(=O)Nc1sc3c(c1C(N)=O)CCC3)C2=O (stereo unspecified) | inconclusive: 56.2 µM [inhibitor, partial curve, poor fit]
3 | Cc1nc(C)c(-c2csc(Nc3ncccc3C)n2)s1 | inconclusive: 1.12 µM [inhibitor, full curve]
4 | CCN(CC)c1ccc(C2C(C(C)=O)C(=O)CC(C)(O)C2C(C)=O)cc1 (stereo unspecified) | inconclusive: 56.2 µM [inhibitor, partial curve, poor fit]
5 | COc1cc(OC)cc(C(=O)N2CCCC(c3nc(-c4ccc(C)o4)no3)C2)c1 (stereo unspecified) | inconclusive: 100 µM [inhibitor, partial curve, poor fit]
6 | S=C(Nc1ccc(Br)cc1)Nc1ccc2c(c1)OCCO2 | inconclusive: 44.7 µM [inhibitor, partial curve, poor fit]
7 | COc1cc(CNC(=O)c2ccc3c(c2)NC(=O)CCS3)ccc1OCc1ccccc1 | inconclusive: 44.7 µM [inhibitor, partial curve, poor fit]
8 | CCCOC1(C(F)(F)F)NC(=O)N(c2ccc(Cl)cc2)C1=O (stereo unspecified) | inconclusive: 89.1 µM [inhibitor, partial curve, poor fit]
9 | O=C1CC(c2ccccc2)c2ncn(-c3cc(F)ccc3F)c2N1 (stereo unspecified) | active: 5.01 µM
10 | CCOc1ccc(S(=O)(=O)N2CCCCC2)cc1NC(=O)C1=COCCO1 | inconclusive: 50.1 µM [inhibitor, partial curve, poor fit]
11 | CN(Cc1ccccc1)C(=O)C[C@@H]1O[C@H](CNS(=O)(=O)c2ccc(Cl)cc2)[C@@H](O)[C@H]1O | inconclusive: 15.8 µM [inhibitor, full curve]
12 | Cc1nc2cccnc2n1-c1cccc(C(=O)N2CCN(c3ccc(Cl)cc3)CC2)c1 | inactive
13 | CCCc1nc2ccccc2c(=O)n1NC(=O)c1c(O)c2ccccc2n(C)c1=O | inactive
14 | Cc1cnc(C2CC2)n1CCNC(=O)c1cncn1C | inactive
15 | O=[N+]([O-])c1ccc(OCCCCCN2CCOCC2)cc1 | inconclusive: 50.1 µM [inhibitor, single point]
16 | NCc1cccc(CNc2ccc([N+](=O)[O-])cc2C(N)=O)c1 | inconclusive: 100 µM [inhibitor, partial curve, poor fit]
17 | COc1cccc(C(O)c2nc(C(=O)Nc3nc(C)cs3)c(C)o2)c1 (stereo unspecified) | inactive
18 | N#Cc1c(O)ccc(O)c1C#N | inconclusive: 100 µM [inhibitor, single point]
19 | CC1(C(=O)NCCC(F)(F)F)Cc2c(-c3cccc(C(F)(F)F)c3)ccnc2O1 (stereo unspecified) | inactive
20 | COc1cc(CN2CCN(c3cccc(C)c3C)CC2)cc(Br)c1O | inconclusive: 7.94 µM [inhibitor, partial curve, poor fit]
21 | O=C1CC(c2ccc(O)cc2)c2ncn(-c3ccccc3)c2N1 (stereo unspecified) | inconclusive: 1.41 µM [inhibitor, full curve, poor fit]
22 | O=C(CSc1nnnn1-c1ccc(O)cc1)NC(Cc1ccccc1)c1ccccc1 (stereo unspecified) | inconclusive: 3.16 µM [inhibitor, full curve, poor fit]

Row | Structure (SMILES) | Potency
23 | CCN(CC)S(=O)(=O)c1ccc2nc(CCl)[nH]c2c1 | inactive
24 | CC(C)(C)c1ccc(C(=O)N2CCN(C/C=C/c3ccccc3)CC2)cc1 | inconclusive: 39.8 µM [inhibitor, partial curve, poor fit]
25 | Cn1c([C@H]2CCN(C(=O)c3cccnc3)C2)nc2ccccc21 | inactive
26 | Cc1csc(CNC(=O)c2cc(C)c(C)s2)n1 | inactive
27 | O=S1(=O)CCC(N=Cc2ccc(-c3ccc(Cl)cc3)o2)C1 (stereo unspecified) | inconclusive: 50.1 µM [inhibitor, partial curve, poor fit]
28 | CC(OC(=O)c1snc(C(=O)NC2CCCCC2)c1N)C(=O)NC(C)(C)C (stereo unspecified) | inactive
29 | COCCn1c(CCC(=O)Nc2ccc(C)cc2)nc2c1c(=O)[nH]c(=O)n2CC(C)C | inactive
30 | CN(C)/C=C/C(=O)/C=C/c1ccc(Cl)cc1Cl | inconclusive: 44.7 µM [inhibitor, partial curve, poor fit]
31 | Cc1ccc(Nc2nc(NC3CCCCC3)nc3c2cnn3C)cc1 | inconclusive: 112 µM [inhibitor, partial curve, poor fit]
32 | O=c1[nH]c(=S)[nH]c2c1C(c1ccc(F)cc1)OC(CCOCc1ccccc1)C2 (stereo unspecified) | inconclusive: 50.1 µM [inhibitor, partial curve, poor fit]
33 | O=C(NCc1cccs1)C1CCN(S(=O)(=O)c2cccc([N+](=O)[O-])c2)CC1 | inconclusive: 50.1 µM [inhibitor, partial curve, poor fit]
34 | Cc1cccc(C(=O)N/C(=C\c2ccco2)C(=O)N2CCCC2)c1 | inconclusive: 12.6 µM [inhibitor, partial curve, poor fit]
35 | CCOC(=O)Nc1ccc(NCc2ccc(F)cc2)nc1N | inactive and inconclusive: 44.7 µM [inhibitor, partial curve, poor fit]
36 | Cc1ccc2nccc(C(=O)N3CCn4nc(C(=O)N5CCCC5)cc4C3)c2c1 | inactive
37 | COc1ccc(NC(=O)Nc2cc(C)ccc2OC)cc1 | inactive
38 | CCC(C)(C(=O)NC1CCCCC1)N(C)C(=O)c1ccccn1 (stereo unspecified) | inconclusive: 31.6 µM [inhibitor, single point]
39 | CC1CCCN(S(=O)(=O)c2cc3cc(Br)ccc3oc2=O)C1 (stereo unspecified) | inactive
40 | CC(NC(=O)c1cc(=O)[nH]c2ccccc12)c1ccc(F)cc1F (stereo unspecified) | inconclusive: 50.1 µM [inhibitor, partial curve, poor fit]
41 | c1ccc2c(c1)OCCOCCOCCOCCOCCOc1ccccc1OCCOCCOCCO2 | inactive
42 | O=C(COC(=O)c1cccc(F)c1)c1ccc([N+](=O)[O-])cc1 | inconclusive: 0.316 µM [inhibitor, full curve, poor fit]
43 | OC[C@H]1O[C@@H](c2nc(-c3ccc4c(c3)CCO4)no2)[C@H](O)[C@@H](O)[C@H]1O | inconclusive: 112 µM [inhibitor, partial curve, poor fit]
44 | O=c1[nH]c(/C=C/c2ccccc2)c([N+](=O)[O-])c(=O)[nH]1 | inactive

Part of the list above, set out differently.

| Row | Structure (SMILES) | Potency |
| --- | --- | --- |
| 26 | Cc1csc(CNC(=O)c2cc(C)c(C)s2)n1 | inactive |
| 27 | O=S1(=O)CCC(N=Cc2ccc(-c3ccc(Cl)cc3)o2)C1 (stereo unspecified) | inconclusive: 50.1 µM [inhibitor, partial curve, poor fit] |
| 28 | CC(OC(=O)c1snc(C(=O)NC2CCCCC2)c1N)C(=O)NC(C)(C)C (stereo unspecified) | inactive |
| 29 | COCCn1c(CCC(=O)Nc2ccc(C)cc2)nc2c1c(=O)[nH]c(=O)n2CC(C)C | inactive |
| 30 | CN(C)/C=C/C(=O)/C=C/c1ccc(Cl)cc1Cl | inconclusive: 44.7 µM [inhibitor, partial curve, poor fit] |
| 31 | Cc1ccc(Nc2nc(NC3CCCCC3)nc3c2cnn3C)cc1 | inconclusive: 112 µM [inhibitor, partial curve, poor fit] |
| 32 | O=c1[nH]c(=S)[nH]c2c1C(c1ccc(F)cc1)OC(CCOCc1ccccc1)C2 (stereo unspecified) | inconclusive: 50.1 µM [inhibitor, partial curve, poor fit] |
| 33 | O=C(NCc1cccs1)C1CCN(S(=O)(=O)c2cccc([N+](=O)[O-])c2)CC1 | inconclusive: 50.1 µM [inhibitor, partial curve, poor fit] |
| 34 | Cc1cccc(C(=O)N/C(=C\c2ccco2)C(=O)N2CCCC2)c1 | inconclusive: 12.6 µM [inhibitor, partial curve, poor fit] |
| 35 | CCOC(=O)Nc1ccc(NCc2ccc(F)cc2)nc1N | inactive and inconclusive: 44.7 µM [inhibitor, partial curve, poor fit] |
| 36 | Cc1ccc2nccc(C(=O)N3CCn4nc(C(=O)N5CCCC5)cc4C3)c2c1 | inactive |
| 37 | COc1ccc(NC(=O)Nc2cc(C)ccc2OC)cc1 | inactive |
| 38 | CCC(C)(C(=O)NC1CCCCC1)N(C)C(=O)c1ccccn1 (stereo unspecified) | inconclusive: 31.6 µM [inhibitor, single point] |
| 39 | CC1CCCN(S(=O)(=O)c2cc3cc(Br)ccc3oc2=O)C1 (stereo unspecified) | inactive |
| 40 | CC(NC(=O)c1cc(=O)[nH]c2ccccc12)c1ccc(F)cc1F (stereo unspecified) | inconclusive: 50.1 µM [inhibitor, partial curve, poor fit] |
| 41 | c1ccc2c(c1)OCCOCCOCCOCCOCCOc1ccccc1OCCOCCOCCO2 | inactive |

More results

Row | Structure (SMILES) | Potency
45 | Cc1cccc(Cn2cc(CN3CC(N(C)CCCOC(=O)c4cc5ccccc5o4)CS3(=O)=O)nn2)c1 (stereo unspecified) | inconclusive: 35.5 µM [inhibitor, partial curve, poor fit]
46 | CCCCCOc1ccc(C(=O)Nc2cccc3cccnc23)cc1 | inconclusive: 112 µM [inhibitor, single point]
47 | CCCCOC(=O)C(=O)OCCCC | inconclusive: 79.4 µM [inhibitor, partial curve, poor fit]
48 | O=C(NCCCc1ccccc1)c1c(O)nc2sccn2c1=O | inconclusive: 2.51 µM [inhibitor, full curve]
49 | COc1ccc(-n2c(=O)c(-c3ccc(F)cc3)nc3cnc(OC)nc32)cc1 | inactive
50 | Cc1ccc(-c2cc3c(=O)n(CCNC(=O)c4ccoc4)ccn3n2)cc1C | inconclusive: 50.1 µM [inhibitor, partial curve, poor fit]
51 | Cc1cc2nn(-c3ccc(Cl)cc3)nc2cc1N | active: 7.08 µM
52 | COCc1cccc(-c2csc(C(C)(O)c3cccc(OC)c3)n2)c1 (stereo unspecified) | inconclusive: 100 µM [inhibitor, partial curve, poor fit]
53 | CC(=O)Nc1ccc2nc(-c3ccccc3C)oc2c1 | inactive
54 | CCN1C(=O)C(CC(=O)Nc2ccc(Br)cc2)N(CCCc2ccccc2)C1=S (stereo unspecified) | inconclusive: 50.1 µM [inhibitor, partial curve, poor fit]
55 | COC(=O)C(C)(C)NC(=O)CNC(=O)OCc1ccccc1 | inactive
56 | CCCC(=O)c1cc(F)c(N2CCOCC2)cc1C | inactive
57 | O=C(OC1CCCCC1=O)c1ccc(Br)cc1 (stereo unspecified) | inconclusive: 28.2 µM [inhibitor, single point]
58 | COc1cccc(Nc2ncc3nc(-c4cn(C)c5ccccc45)c(=O)n(CCC#N)c3n2)c1 | inconclusive: 25.1 µM [inhibitor, partial curve, poor fit]
59 | Nc1nc2c(ncn2[C@@H]2O[C@H](C(=O)N[C@H](Cc3ccccc3)C(=O)NCC3CCCCC3)[C@@H](O)[C@H]2O)c(=O)[nH]1 | inconclusive: 56.2 µM [inhibitor, partial curve]
60 | COc1ccc(-n2ccnc2SCC(=O)Nc2ccc(F)cc2F)cc1 | inconclusive: 158 µM [inhibitor, partial curve, poor fit]
61 | COc1ccc(CCNC(=O)CN2C(=O)NC(CCSC)C2=O)cc1 (stereo unspecified) | inactive
62 | CC[n+]1c(/C=C/c2ccc(N(C)C)cc2)ccc2ccccc21 | inconclusive: 141 µM [inhibitor, partial curve, poor fit]
63 | Cc1ccc(C)c(S(=O)(=O)c2c[nH]c(=S)[nH]c2=O)c1 | inconclusive: 50.1 µM [inhibitor, partial curve, poor fit]
64 | COc1ccc(C)c2sc(N(CCN(C)C)C(=O)c3ccc4ccccc4c3)nc12 | inconclusive: 50.1 µM [inhibitor, partial curve, poor fit]
65 | COc1ccc(CCC(=O)N2CCc3c([nH]c4ccccc34)C2c2ccc(F)cc2)cc1 (stereo unspecified) | inconclusive: 79.4 µM [inhibitor, partial curve, poor fit]
66 | CCSc1nnc2n(-c3cccc(C)c3)c(=O)c3c4c(sc3n12)CCCC4 | inconclusive: 100 µM [inhibitor, partial curve, poor fit]
